Test results taken from paper PMC12656746.
Results are given in words; binding and its absence hold for the method and conditions named. In cells and extracts the contact can be indirect. Some binding calls cover weakened binding; strength is not graded here. Sequences can lack the tags named with a protein.

Protein sequences, listed by entry. Tags and fused reporters are not part of them.
UniProt Q7Z333: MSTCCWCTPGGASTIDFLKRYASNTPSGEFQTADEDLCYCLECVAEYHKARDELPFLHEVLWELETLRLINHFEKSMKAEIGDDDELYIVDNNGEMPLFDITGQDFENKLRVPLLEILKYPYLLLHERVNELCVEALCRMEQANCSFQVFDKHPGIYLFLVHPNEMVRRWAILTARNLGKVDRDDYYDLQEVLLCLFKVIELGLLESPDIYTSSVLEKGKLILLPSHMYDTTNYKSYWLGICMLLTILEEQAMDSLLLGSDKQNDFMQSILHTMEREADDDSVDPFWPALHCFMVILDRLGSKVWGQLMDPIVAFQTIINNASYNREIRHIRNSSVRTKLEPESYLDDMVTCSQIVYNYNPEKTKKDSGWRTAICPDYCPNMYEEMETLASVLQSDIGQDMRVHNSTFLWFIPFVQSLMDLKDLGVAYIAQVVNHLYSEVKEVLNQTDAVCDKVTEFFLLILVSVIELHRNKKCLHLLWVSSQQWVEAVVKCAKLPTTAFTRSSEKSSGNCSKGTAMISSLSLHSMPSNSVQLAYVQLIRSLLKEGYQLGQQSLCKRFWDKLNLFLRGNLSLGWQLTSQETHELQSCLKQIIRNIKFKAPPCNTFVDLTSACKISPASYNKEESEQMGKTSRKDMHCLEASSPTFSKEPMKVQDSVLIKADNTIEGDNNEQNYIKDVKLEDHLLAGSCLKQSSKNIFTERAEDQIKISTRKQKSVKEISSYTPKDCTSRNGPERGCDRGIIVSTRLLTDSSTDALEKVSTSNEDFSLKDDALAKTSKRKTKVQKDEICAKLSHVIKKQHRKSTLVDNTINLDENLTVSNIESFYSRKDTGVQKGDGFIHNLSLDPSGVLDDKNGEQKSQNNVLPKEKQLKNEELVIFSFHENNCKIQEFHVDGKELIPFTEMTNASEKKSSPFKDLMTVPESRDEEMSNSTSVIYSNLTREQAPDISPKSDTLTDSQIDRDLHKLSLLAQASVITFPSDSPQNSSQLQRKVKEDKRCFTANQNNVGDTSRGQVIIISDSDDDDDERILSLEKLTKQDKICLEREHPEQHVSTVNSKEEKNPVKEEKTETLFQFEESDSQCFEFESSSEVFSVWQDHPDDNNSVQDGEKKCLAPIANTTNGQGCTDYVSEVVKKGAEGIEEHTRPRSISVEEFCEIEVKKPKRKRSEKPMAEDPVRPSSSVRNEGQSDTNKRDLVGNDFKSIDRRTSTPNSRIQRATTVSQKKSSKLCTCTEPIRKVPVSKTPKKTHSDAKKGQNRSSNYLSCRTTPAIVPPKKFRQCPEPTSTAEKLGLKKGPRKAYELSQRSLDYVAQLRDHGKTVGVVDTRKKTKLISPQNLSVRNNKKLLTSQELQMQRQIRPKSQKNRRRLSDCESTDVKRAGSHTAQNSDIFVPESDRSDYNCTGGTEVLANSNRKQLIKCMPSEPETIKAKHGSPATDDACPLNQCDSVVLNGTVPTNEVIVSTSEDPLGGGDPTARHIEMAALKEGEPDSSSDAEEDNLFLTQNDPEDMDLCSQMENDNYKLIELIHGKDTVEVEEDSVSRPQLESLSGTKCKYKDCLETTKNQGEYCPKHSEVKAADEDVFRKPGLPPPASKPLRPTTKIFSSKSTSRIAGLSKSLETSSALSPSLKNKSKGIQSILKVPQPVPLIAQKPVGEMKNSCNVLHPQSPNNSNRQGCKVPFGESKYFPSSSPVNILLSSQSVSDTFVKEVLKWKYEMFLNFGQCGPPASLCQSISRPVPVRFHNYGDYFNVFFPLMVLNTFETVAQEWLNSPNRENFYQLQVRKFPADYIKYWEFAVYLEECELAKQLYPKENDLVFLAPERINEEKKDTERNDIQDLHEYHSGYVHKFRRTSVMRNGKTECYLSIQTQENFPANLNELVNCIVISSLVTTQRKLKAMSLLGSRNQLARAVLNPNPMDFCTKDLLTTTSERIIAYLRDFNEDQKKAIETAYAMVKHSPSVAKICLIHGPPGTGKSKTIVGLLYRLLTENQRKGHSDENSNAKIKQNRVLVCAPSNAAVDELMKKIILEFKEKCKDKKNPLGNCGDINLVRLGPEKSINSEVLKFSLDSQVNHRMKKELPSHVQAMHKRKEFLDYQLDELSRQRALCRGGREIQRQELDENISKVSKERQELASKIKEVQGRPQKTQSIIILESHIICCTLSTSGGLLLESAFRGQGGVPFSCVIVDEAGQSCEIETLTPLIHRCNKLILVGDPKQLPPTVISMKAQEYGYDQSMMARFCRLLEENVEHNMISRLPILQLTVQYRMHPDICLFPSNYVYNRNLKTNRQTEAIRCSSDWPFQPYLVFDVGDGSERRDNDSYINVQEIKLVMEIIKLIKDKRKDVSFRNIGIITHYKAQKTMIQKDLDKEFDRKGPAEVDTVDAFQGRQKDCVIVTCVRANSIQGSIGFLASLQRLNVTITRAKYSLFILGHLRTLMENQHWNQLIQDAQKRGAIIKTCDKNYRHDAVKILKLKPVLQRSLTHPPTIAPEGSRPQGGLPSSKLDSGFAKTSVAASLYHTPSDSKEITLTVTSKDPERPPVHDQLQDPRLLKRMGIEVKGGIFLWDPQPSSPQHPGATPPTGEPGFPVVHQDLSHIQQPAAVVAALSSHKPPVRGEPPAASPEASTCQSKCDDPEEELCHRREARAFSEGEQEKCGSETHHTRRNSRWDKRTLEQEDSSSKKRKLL
UniProt P17383: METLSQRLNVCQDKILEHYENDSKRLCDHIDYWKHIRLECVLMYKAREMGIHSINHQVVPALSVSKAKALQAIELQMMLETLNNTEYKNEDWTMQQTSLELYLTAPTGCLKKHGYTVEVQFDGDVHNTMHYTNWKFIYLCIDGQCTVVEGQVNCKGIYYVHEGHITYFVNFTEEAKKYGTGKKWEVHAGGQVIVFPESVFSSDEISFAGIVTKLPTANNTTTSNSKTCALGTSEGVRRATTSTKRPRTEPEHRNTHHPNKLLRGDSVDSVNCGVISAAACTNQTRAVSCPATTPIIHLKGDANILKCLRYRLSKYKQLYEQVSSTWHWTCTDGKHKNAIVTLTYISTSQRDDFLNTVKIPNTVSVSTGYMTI

B1: Zinc-finger protein ZPR1, FLAG-ZPR1 (protein, UniProt O75312 1-459)
chain: MAASGAVEPGPPGAAVAPSPAPAPPPAPDHLFRPISAEDEEQQPTEIESLCMNCYCNGMTRLLLTKIPFFREIIVSSFSCEHCGWNNTEIQSAGRIQDQGVRYTLSVRALEDMNREVVKTDSAATRIPELDFEIPAFSQKGALTTVEGLITRAISGLEQDQPARRANKDATAERIDEFIVKLKELKQVASPFTLIIDDPSGNSFVENPHAPQKDDALVITHYNRTRQQEEMLGLQEEAPAEKPEEEDLRNEVLQFSTNCPECNAPAQTNMKLVQIPHFKEVIIMATNCENCGHRTNEVKSGGAVEPLGTRITLHITDASDMTRDLLKSETCSVEIPELEFELGMAVLGGKFTTLEGLLKDIRELVTKNPFTLGDSSNPGQTERLQEFSQKMDQIIEGNMKAHFIMDDPAGNSYLQNVYAPEDDPEMKVERYKRTFDQNEELGLNDMKTEGYEAGLAPQR

Target: Senataxin (SETX), GFP-SETX (human) (UniProt Q7Z333)
Experiment: co-IP

| Molecule | binding |
| --- | --- |
| HPV-31 E2 protein (from UniProt P17383 1-372) | binds |
| B1 | binds |
